Results reported in doi:10.1101/558098.
Results are given in words; binding and its absence hold for the method and conditions named. Some results given as binding are weak or reduced against the parent protein; the word gives no strength.

The chains behind the UniProt entries cited, without tags or fusion partners.
UniProt P67809: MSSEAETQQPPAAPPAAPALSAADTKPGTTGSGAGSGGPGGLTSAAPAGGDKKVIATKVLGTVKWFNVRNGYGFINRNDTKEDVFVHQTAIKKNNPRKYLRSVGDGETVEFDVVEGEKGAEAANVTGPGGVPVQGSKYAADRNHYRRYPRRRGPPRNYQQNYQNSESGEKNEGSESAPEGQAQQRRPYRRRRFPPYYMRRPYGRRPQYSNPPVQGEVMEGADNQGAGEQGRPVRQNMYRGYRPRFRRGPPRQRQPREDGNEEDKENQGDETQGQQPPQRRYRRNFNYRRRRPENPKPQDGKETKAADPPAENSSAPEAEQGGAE
UniProt P11940: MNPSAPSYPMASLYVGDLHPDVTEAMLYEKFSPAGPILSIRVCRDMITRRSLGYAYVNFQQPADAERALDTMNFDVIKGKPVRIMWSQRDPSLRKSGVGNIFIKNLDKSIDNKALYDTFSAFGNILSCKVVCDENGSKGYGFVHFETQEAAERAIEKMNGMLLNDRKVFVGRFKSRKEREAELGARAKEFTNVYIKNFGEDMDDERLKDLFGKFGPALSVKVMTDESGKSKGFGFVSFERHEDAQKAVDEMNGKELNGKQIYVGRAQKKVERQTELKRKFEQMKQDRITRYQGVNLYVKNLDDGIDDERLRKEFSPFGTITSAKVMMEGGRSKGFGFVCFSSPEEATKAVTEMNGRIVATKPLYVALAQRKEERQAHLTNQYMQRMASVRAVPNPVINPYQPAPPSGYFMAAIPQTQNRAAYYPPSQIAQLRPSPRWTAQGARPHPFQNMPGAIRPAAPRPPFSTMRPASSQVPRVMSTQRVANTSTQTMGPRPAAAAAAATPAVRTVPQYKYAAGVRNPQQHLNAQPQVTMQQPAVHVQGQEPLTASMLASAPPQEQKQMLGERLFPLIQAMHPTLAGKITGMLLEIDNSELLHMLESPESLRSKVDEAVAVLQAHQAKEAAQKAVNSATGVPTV

Target: mCherry-tagged YBX1 (human) (UniProt P67809)
Assay: fluorescence cross-correlation spectroscopy

- binding: binds
Substance: PABPC1-GFP (poly(A) binding protein C1 with C-terminal GFP) (from UniProt P11940 1-636)
